Some entries share one result that the patent states for a list of compounds.
What was measured:
Assay type in all cases: in vivo
[1] = system: Myzus persicae; assay: Myzus persicae (green peach aphid) sunflower leaf disc spray test; conditions: sunflower leaf discs sprayed at 200 ppm; mixed ages; 6 DAT; mortality
[2] = system: Heliothis virescens; assay: Heliothis virescens (tobacco budworm) egg/larva test on artificial diet; conditions: 200 ppm by pipetting on eggs (0-24 h old) on artificial diet; 4 days; egg mortality, larval mortality, growth regulation
[3] = system: Myzus persicae; assay: Myzus persicae (green peach aphid) pea seedling root uptake test; conditions: roots of infested pea seedlings in test solutions of 24 ppm; 6 days; mortality
[4] = system: Tetranychus urticae; assay: Tetranychus urticae (two-spotted spider mite) bean leaf disc spray test; conditions: bean leaf discs sprayed at 200 ppm; mixed ages; 8 days; egg, larval and adult mortality

CCOCC(Oc1cccc(C)c1Cl)C1=NCCN1 (centres unmarked) [1.058] was tested, and the “control of Myzus persicae” value [1] was “at least 80%”.

With C=CCC(Oc1cccc(C)c1C)C1=NCCN1COC (centres unmarked) [1.075] the “control of Heliothis virescens” value [2] was “at least 80%”, the “control of Myzus persicae” value [1] was “at least 80%” and the “control of Myzus persicae” value [3] was “at least 80%”.

Cc1cccc(OC(CC2CC2)C2=NCCN2)c1C (centres unmarked) [1.033] was tested, and the “control of Heliothis virescens” value [2] was “at least 80%”, the “control of Myzus persicae” value [1] was “at least 80%” and the “control of Myzus persicae” value [3] was “at least 80%”.

In the case of Cc1cccc(OC(C2=NCCN2)C2CCCCC2)c1C (centres unmarked) [1.012], the “control of Myzus persicae” value [1] is reported as “at least 80%”.

For COCC(Oc1cccc(C)c1C)C1=NCCN1 (centres unmarked) [1.068], the “control of Heliothis virescens” value [2] was “at least 80%”, the “control of Myzus persicae” value [1] was “at least 80%” and the “control of Myzus persicae” value [3] was “at least 80%”.

For COCC(Oc1cccc(C(F)(F)F)c1F)C1=NCCN1 (centres unmarked) [1.066], the “control of Myzus persicae” value [1] was “at least 80%”.

For CC=CCC(Oc1cccc(C)c1C)C1=NCCN1 (single isomer, unassigned) [1.032], the “control of Heliothis virescens” value [2] was “at least 80%”, the “control of Myzus persicae” value [1] was “at least 80%” and the “control of Myzus persicae” value [3] was “at least 80%”.

For Cc1cccc(OC(CC=CCl)C2=NCCN2)c1C (single isomer, unassigned) [1.019], the “control of Myzus persicae” value [3] was “at least 80%”.

In the case of C=CCC(Oc1cccc(C)c1C)C1=NCCN1C#N (centres unmarked) [1.077], the “control of Heliothis virescens” value [2] is reported as “at least 80%” and the “control of Myzus persicae” value [1] is reported as “at least 80%”.

In the case of CC#CCC(Oc1cccc(C)c1C)C1=NCCN1 (centres unmarked) [1.071], the “control of Myzus persicae” value [1] is reported as “at least 80%”.

In the case of C=CCC(Oc1cccc(C)c1Cl)C1=NCCN1 (centres unmarked) [1.047], the “control of Tetranychus urticae” value [4] is reported as “at least 80%”, the “control of Heliothis virescens” value [2] is reported as “at least 80%” and the “control of Myzus persicae” value [1] is reported as “at least 80%”. The “control of Myzus persicae” value [3] was “at least 80%”.

C=CCC(Oc1c(F)ccc(F)c1C)C1=NCCN1 (centres unmarked) [1.045] was tested, and the “control of Tetranychus urticae” value [4] was “at least 80%” and the “control of Myzus persicae” value [1] was “at least 80%”.

CCOCC(Oc1cccc(Cl)c1C)C1=NCCN1 (centres unmarked) [1.053] was tested, and the “control of Heliothis virescens” value [2] was “at least 80%”, the “control of Myzus persicae” value [1] was “at least 80%” and the “control of Myzus persicae” value [3] was “at least 80%”.

C=CCC(Oc1cc(F)cc(F)c1C)C1=NCCN1 (centres unmarked) [1.044] was tested, and the “control of Tetranychus urticae” value [4] was “at least 80%” and the “control of Heliothis virescens” value [2] was “at least 80%”.

With C#CCC(Oc1cccc(C)c1C)C1=NCCN1 (centres unmarked) [I-106, 2-[1-(2,3-Dimethyl-phenoxy)-but-3-ynyl]-4,5-dihydro-1H-imidazole] the “control of Tetranychus urticae” value [4] was “at least 80%”, the “control of Heliothis virescens” value [2] was “at least 80%” and the “control of Myzus persicae” value [1] was “at least 80%”. The “control of Myzus persicae” value [3] was “at least 80%”.

For CCOCC(Oc1cccc(C)c1C)C1=NCCN1 (centres unmarked) [1.034], the “control of Myzus persicae” value [1] was “at least 80%” and the “control of Myzus persicae” value [3] was “at least 80%”.

For Cc1cccc(OC(CCCF)C2=NCCN2)c1C (centres unmarked) [1.036], the “control of Myzus persicae” value [1] was “at least 80%” and the “control of Myzus persicae” value [3] was “at least 80%”.

COCC(Oc1c(F)c(F)cc(F)c1F)C1=NCCN1 (centres unmarked) [1.051] was tested, and the “control of Tetranychus urticae” value [4] was “at least 80%”.

COCC(Oc1c(F)ccc(C)c1Cl)C1=NCCN1 (centres unmarked) [1.060] was tested, and the “control of Tetranychus urticae” value [4] was “at least 80%” and the “control of Myzus persicae” value [1] was “at least 80%”.

For Cc1cccc(OC(C2=NCCN2)C2CC2)c1C (centres unmarked) [1.038], the “control of Heliothis virescens” value [2] was “at least 80%”, the “control of Myzus persicae” value [1] was “at least 80%” and the “control of Myzus persicae” value [3] was “at least 80%”.

For COCC(Oc1c(F)cccc1F)C1=NCCN1 (centres unmarked) [1.050], the “control of Tetranychus urticae” value [4] was “at least 80%”.

In the case of C=CCC(Oc1c(F)c(F)cc(F)c1F)C1=NCCN1 (centres unmarked) [1.043], the “control of Tetranychus urticae” value [4] is reported as “at least 80%”, the “control of Myzus persicae” value [1] is reported as “at least 80%” and the “control of Myzus persicae” value [3] is reported as “at least 80%”.

With COCC(Oc1cc(F)cc(C)c1Cl)C1=NCCN1 (centres unmarked) [1.062] the “control of Tetranychus urticae” value [4] was “at least 80%”, the “control of Heliothis virescens” value [2] was “at least 80%” and the “control of Myzus persicae” value [1] was “at least 80%”.

With C=CCOCC(Oc1cccc(C)c1C)C1=NCCN1 (centres unmarked) [1.035] the “control of Myzus persicae” value [1] was “at least 80%” and the “control of Myzus persicae” value [3] was “at least 80%”.

In the case of C=CCC(Oc1cc(F)cc(F)c1F)C1=NCCN1 (centres unmarked) [1.041], the “control of Tetranychus urticae” value [4] is reported as “at least 80%”.

Cc1cccc(OC(C2=NCCN2)C2CCC2)c1C (centres unmarked) [1.039] was tested, and the “control of Myzus persicae” value [1] was “at least 80%”.

With C=CCC(Oc1cccc(C)c1C)C1=NCCN1CSC (centres unmarked) [1.074] the “control of Myzus persicae” value [1] was “at least 80%”.

In the case of COCC(Oc1cccc(Cl)c1C)C1=NCCN1 (centres unmarked) [1.048], the “control of Tetranychus urticae” value [4] is reported as “at least 80%”, the “control of Heliothis virescens” value [2] is reported as “at least 80%” and the “control of Myzus persicae” value [1] is reported as “at least 80%”. For the same compound, the “control of Myzus persicae” value [3] was “at least 80%”.

Cc1cccc(OC(CC=C(Cl)Cl)C2=NCCN2)c1C (centres unmarked) [1.020] was tested, and the “control of Heliothis virescens” value [2] was “at least 80%” and the “control of Myzus persicae” value [1] was “at least 80%”.

For C=CC(C)C(Oc1cccc(C)c1C)C1=NCCN1 (single isomer, unassigned) [1.030], the “control of Heliothis virescens” value [2] was “at least 80%”.

C=CCC(Oc1cccc(C)c1C)C1=NCCN1 (centres unmarked) [I-50, 2-[1-(2,3-Dimethyl-phenoxy)-but-3-enyl]-4,5-dihydro-1H-imidazole] was tested, and the “control of Tetranychus urticae” value [4] was “at least 80%”, the “control of Heliothis virescens” value [2] was “at least 80%” and the “control of Myzus persicae” value [1] was “at least 80%”.

With CC(C)=CCC(Oc1cccc(C)c1C)C1=NCCN1 (centres unmarked) [1.021] the “control of Heliothis virescens” value [2] was “at least 80%”.

With C=C(Cl)CC(Oc1cccc(C)c1C)C1=NCCN1 (centres unmarked) [1.037] the “control of Heliothis virescens” value [2] was “at least 80%” and the “control of Myzus persicae” value [1] was “at least 80%”.

For C=CCC(Oc1cccc(Cl)c1C)C1=NCCN1 (centres unmarked) [1.046], the “control of Tetranychus urticae” value [4] was “at least 80%”, the “control of Heliothis virescens” value [2] was “at least 80%” and the “control of Myzus persicae” value [1] was “at least 80%”. The “control of Myzus persicae” value [3] was “at least 80%”.

With C=CC(C)C(Oc1cccc(C)c1C)C1=NCCN1 (single isomer, unassigned) [1.025] the “control of Myzus persicae” value [1] was “at least 80%” and the “control of Myzus persicae” value [3] was “at least 80%”.

For C#CCC(Oc1cccc(Cl)c1Cl)C1=NCCN1 (centres unmarked) [III-106], the “control of Tetranychus urticae” value [4] was “at least 80%” and the “control of Heliothis virescens” value [2] was “at least 80%”.

For CCOCC(Oc1cccc(Cl)c1Cl)C1=NCCN1 (centres unmarked) [1.054], the “control of Heliothis virescens” value [2] was “at least 80%”.

For COCC(Oc1cccc(C)c1I)C1=NCCN1 (centres unmarked) [1.064], the “control of Tetranychus urticae” value [4] was “at least 80%” and the “control of Heliothis virescens” value [2] was “at least 80%”.

For COC(C)C(Oc1cccc(C)c1C)C1=NCCN1 (single isomer, unassigned) [1.069], the “control of Myzus persicae” value [1] was “at least 80%”.

In the case of C=C(C)CC(Oc1cccc(C)c1C)C1=NCCN1 (centres unmarked) [1.029], the “control of Myzus persicae” value [1] is reported as “at least 80%” and the “control of Myzus persicae” value [3] is reported as “at least 80%”.

With C=CCC(Oc1cccc(C)c1Br)C1=NCCN1 (centres unmarked) [1.065] the “control of Tetranychus urticae” value [4] was “at least 80%”, the “control of Heliothis virescens” value [2] was “at least 80%” and the “control of Myzus persicae” value [1] was “at least 80%”. For the same compound, the “control of Myzus persicae” value [3] was “at least 80%”.

For COCC(Oc1cccc(C)c1Br)C1=NCCN1 (centres unmarked) [1.063], the “control of Myzus persicae” value [1] was “at least 80%”.

With C=CCOCN1CCN=C1C(CC=C)Oc1cccc(C)c1C (centres unmarked) [1.076] the “control of Myzus persicae” value [1] was “at least 80%” and the “control of Myzus persicae” value [3] was “at least 80%”.

C=CCC(Oc1c(F)cccc1F)C1=NCCN1 (centres unmarked) [1.042] was tested, and the “control of Tetranychus urticae” value [4] was “at least 80%”.

With C=CCC(Oc1cccc(Cl)c1Cl)C1=NCCN1 (centres unmarked) [III-50] the “control of Heliothis virescens” value [2] was “at least 80%”, the “control of Myzus persicae” value [1] was “at least 80%” and the “control of Myzus persicae” value [3] was “at least 80%”.

For Cc1cccc(OC(CC=CCl)C2=NCCN2)c1C (single isomer, unassigned) [1.026], the “control of Myzus persicae” value [1] was “at least 80%”.
